Data as given in the supplement of paper PMC6411743.
± gives the standard deviation of the averaged measurements. The list shows a part of the results, in another mix than the full data.

Amino acid sequences for entries named in this document (tags omitted). A change or cut given only in a name is not applied to a line headed by its entry.
UniProt P35573: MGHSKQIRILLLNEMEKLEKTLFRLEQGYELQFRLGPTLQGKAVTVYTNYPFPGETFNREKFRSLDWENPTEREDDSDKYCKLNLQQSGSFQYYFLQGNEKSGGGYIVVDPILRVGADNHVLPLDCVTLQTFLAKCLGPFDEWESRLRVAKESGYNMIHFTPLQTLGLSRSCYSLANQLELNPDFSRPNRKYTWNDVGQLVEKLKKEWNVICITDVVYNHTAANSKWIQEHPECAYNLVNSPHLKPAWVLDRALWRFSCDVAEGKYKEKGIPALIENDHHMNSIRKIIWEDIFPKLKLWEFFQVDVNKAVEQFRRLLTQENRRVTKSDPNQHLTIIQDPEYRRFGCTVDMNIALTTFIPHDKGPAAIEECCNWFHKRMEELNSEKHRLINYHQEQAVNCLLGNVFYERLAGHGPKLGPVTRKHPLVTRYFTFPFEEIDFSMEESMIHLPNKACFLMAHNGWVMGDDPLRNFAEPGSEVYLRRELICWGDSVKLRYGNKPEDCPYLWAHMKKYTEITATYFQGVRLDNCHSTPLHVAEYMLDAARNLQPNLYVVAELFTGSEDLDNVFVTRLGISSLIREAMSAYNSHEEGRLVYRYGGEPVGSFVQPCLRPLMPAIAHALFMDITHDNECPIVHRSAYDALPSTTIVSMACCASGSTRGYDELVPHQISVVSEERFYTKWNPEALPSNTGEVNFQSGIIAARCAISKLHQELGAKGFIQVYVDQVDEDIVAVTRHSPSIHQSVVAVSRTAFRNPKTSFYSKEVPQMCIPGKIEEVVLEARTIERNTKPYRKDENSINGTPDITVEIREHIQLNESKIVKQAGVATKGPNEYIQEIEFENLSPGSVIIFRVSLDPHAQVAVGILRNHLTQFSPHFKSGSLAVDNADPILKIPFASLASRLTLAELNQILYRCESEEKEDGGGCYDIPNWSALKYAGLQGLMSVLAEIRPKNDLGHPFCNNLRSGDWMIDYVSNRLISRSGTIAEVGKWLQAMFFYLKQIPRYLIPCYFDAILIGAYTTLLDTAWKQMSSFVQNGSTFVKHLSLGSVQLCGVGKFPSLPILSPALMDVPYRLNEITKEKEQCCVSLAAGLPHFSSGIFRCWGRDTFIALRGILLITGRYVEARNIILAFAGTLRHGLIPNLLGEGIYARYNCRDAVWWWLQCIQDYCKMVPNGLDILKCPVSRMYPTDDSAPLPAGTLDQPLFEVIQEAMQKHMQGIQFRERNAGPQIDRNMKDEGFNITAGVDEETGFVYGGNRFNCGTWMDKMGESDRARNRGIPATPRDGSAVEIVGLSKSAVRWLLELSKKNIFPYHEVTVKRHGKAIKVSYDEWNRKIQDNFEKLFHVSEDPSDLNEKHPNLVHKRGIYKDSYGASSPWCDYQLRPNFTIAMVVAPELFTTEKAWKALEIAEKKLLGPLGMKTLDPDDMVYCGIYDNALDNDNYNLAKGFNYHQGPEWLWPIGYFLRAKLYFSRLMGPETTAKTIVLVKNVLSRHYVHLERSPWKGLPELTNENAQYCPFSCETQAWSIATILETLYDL
UniProt P31937: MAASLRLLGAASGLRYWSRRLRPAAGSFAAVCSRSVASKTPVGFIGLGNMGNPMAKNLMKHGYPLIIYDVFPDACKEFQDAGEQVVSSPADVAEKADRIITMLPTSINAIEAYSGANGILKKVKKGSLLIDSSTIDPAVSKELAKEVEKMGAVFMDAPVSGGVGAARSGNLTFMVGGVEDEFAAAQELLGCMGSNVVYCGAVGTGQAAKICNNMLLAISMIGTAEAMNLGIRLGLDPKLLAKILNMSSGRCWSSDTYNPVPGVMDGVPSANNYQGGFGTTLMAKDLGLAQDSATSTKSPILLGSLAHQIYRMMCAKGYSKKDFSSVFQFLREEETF
UniProt P32942: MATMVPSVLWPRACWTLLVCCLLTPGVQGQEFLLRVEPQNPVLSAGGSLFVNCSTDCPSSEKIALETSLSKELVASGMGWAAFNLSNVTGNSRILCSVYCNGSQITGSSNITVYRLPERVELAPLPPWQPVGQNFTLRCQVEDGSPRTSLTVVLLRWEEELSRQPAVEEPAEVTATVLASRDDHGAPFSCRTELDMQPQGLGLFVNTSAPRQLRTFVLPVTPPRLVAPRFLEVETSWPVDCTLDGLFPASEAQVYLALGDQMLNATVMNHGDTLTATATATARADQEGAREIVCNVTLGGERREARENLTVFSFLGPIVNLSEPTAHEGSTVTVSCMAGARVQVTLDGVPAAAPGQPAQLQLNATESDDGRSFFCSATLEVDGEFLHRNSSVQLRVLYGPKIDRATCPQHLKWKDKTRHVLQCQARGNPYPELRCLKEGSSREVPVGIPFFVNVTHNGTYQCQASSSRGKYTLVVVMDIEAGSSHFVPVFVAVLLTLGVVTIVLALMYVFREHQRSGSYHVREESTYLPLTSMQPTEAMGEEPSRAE
UniProt P24534: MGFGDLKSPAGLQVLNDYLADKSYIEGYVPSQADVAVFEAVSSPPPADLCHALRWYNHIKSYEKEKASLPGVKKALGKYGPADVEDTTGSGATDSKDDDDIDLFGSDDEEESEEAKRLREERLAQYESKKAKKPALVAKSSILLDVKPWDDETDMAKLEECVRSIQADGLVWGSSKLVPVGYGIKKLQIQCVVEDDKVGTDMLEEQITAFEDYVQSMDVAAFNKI
UniProt P29350: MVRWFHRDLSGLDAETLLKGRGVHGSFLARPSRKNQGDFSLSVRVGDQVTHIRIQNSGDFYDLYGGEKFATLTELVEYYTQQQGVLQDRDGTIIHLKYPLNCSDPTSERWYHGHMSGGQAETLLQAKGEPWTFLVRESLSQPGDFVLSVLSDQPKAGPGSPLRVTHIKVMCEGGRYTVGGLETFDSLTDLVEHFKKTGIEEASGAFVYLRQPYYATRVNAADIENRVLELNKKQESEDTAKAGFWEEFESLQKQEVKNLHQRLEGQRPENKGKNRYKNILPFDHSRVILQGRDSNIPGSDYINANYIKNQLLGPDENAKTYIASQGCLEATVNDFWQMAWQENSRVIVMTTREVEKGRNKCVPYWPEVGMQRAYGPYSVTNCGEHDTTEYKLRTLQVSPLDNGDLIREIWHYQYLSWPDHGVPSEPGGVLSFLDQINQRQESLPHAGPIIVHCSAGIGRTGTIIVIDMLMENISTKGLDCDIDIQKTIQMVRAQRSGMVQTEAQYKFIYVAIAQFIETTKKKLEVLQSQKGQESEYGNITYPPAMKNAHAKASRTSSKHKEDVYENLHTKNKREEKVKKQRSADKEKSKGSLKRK
UniProt P17900: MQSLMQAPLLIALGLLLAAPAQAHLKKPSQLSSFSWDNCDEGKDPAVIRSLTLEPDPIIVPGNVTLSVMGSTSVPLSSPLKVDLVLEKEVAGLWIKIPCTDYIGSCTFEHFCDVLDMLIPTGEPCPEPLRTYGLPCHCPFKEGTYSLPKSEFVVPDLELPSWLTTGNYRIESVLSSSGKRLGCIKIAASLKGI
UniProt P17026: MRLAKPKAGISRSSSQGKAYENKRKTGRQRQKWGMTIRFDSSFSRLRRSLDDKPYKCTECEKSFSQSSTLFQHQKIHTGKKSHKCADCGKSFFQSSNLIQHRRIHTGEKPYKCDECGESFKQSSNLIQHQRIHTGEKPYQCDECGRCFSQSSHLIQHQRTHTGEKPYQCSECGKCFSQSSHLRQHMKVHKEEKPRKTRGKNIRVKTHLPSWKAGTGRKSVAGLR
UniProt P33527: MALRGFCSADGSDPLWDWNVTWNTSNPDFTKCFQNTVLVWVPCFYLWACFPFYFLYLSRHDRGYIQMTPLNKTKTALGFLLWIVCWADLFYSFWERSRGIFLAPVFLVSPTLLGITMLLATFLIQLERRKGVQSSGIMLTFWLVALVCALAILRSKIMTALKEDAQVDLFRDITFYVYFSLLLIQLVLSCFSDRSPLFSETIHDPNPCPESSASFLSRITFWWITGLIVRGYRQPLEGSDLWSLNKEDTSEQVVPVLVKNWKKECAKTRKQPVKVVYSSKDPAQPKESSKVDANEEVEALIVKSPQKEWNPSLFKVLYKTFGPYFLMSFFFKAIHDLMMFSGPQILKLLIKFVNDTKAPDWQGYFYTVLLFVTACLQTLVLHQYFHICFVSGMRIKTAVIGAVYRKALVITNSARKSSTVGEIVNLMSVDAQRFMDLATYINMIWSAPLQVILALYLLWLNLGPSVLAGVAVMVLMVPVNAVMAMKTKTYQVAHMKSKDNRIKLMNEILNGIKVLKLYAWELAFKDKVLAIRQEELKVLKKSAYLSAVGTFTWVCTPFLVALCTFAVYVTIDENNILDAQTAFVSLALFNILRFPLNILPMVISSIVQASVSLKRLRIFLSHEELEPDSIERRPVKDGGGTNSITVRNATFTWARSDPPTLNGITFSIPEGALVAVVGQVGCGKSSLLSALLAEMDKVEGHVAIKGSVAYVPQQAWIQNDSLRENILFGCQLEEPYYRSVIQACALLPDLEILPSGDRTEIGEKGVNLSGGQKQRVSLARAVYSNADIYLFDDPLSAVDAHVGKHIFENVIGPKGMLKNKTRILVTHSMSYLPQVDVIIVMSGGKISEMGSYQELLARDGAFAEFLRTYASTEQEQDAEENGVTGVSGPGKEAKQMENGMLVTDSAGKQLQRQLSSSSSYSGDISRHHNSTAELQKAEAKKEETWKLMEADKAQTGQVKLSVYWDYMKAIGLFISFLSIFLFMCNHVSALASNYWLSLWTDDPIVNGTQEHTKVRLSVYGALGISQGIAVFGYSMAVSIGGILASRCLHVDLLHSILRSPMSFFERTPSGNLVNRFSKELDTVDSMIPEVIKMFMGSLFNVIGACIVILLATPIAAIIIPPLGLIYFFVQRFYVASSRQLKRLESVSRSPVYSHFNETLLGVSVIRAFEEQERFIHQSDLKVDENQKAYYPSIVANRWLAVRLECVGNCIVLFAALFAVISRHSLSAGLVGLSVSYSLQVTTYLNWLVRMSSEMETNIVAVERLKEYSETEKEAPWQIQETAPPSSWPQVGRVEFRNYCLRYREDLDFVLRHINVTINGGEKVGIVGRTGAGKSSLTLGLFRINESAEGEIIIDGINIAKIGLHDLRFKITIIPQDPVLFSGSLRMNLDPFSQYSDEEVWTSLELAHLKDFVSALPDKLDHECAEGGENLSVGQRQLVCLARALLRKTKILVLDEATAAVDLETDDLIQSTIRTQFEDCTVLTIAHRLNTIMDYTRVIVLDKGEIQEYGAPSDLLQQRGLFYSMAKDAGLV
UniProt P33908: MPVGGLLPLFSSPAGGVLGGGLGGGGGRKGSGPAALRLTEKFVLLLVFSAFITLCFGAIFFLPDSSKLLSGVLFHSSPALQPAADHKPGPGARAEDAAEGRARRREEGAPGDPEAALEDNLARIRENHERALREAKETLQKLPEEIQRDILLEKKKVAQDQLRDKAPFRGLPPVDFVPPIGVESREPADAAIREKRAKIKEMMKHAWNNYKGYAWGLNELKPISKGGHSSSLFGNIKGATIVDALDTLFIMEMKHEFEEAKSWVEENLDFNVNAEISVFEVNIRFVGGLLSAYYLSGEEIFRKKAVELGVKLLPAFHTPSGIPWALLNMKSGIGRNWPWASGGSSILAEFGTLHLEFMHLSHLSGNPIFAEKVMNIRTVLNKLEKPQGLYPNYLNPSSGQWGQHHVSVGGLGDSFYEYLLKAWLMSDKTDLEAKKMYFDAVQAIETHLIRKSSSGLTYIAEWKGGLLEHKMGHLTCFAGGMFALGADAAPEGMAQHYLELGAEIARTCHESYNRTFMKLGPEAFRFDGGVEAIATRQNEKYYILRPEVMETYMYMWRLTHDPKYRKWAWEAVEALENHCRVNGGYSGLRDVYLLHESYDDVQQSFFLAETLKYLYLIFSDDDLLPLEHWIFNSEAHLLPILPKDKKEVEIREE
UniProt P33992: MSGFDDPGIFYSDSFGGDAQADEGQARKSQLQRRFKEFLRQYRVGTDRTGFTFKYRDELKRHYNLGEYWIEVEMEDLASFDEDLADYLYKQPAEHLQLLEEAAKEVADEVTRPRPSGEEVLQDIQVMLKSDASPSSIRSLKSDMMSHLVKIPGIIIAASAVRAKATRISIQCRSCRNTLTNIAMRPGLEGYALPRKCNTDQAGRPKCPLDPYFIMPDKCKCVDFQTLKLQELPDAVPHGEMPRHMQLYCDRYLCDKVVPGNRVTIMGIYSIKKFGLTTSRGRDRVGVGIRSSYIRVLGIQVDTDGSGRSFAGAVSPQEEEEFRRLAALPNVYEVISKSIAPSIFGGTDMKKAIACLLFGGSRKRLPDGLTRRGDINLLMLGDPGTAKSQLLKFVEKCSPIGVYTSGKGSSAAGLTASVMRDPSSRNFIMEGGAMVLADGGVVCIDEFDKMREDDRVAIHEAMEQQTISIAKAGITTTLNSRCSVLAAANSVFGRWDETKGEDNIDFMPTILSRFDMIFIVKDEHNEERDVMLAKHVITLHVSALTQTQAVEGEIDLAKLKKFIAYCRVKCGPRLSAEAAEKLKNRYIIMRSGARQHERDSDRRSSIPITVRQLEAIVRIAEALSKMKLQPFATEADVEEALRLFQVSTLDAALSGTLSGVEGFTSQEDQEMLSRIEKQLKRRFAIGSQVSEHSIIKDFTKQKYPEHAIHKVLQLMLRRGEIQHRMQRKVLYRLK

Compound: Nc1ncnc2c1ncn2[C@@H]1O[C@H](COP(=O)(O)OP(=O)(O)OP(=O)(O)O)[C@@H](O)[C@H]1O [adenosine triphosphate]
Test: NP40-soluble protein abundance relative to vehicle (solubility fold change) (ratio); higher = more soluble protein in presence of ATP
Outline: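 Jurkat crude lysate prepared with a Dounce homogeniser was treated at eight concentrations spanning 0.1 to 10 mM, 10 min at room temperature then 3 min at 37 °C. Solubilisation with 0.8% NP40 and benzonase and ultracentrifugation preceded TMT labelling of the supernatant for LC-MS/MS. Fold change against the detergent-processed vehicle was determined per replicate from vsn-normalised intensities, across three independent experiments.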

Target	NP40-soluble protein abundance (concentration: 1mM)	NP40-soluble protein abundance (concentration: 2mM)	NP40-soluble protein abundance (concentration: 4mM)	NP40-soluble protein abundance (concentration: 6mM)	NP40-soluble protein abundance (concentration: 8mM)	NP40-soluble protein abundance (concentration: 10mM)
TRIM21 (UniProt P19474)	0.99 ± 0.034	0.984 ± 0.044	0.979 ± 0.055	0.981 ± 0.06	0.984 ± 0.045	0.972 ± 0.04
UniProt P20936 and related entries	1.02 ± 0.024	0.997 ± 0.015	1 ± 0.042	0.973 ± 0.043	1 ± 0.025	0.97 ± 0.035
AKT2 (UniProt P31751)	1.03 ± 0.1	1.04 ± 0.12	1.01 ± 0.11	0.93 ± 0.13	1.03 ± 0.077	1.01 ± 0.097
UniProt P33241 and related entries	0.944 ± 0.14	1.02 ± 0.1	1.05 ± 0.11	1.1 ± 0.13	1.07 ± 0.056	1.08 ± 0.069
RBL1 (UniProt P28749)	1.07 ± 0.2	1.109 ± 0.0067	1.05 ± 0.1	1.05 ± 0.09	1.02 ± 0.061	1.02 ± 0.11
SLC9A1 (UniProt P19634)	0.912 ± 0.067	0.893 ± 0.031	0.897 ± 0.036	0.942 ± 0.092	0.883 ± 0.061	0.855 ± 0.078
UniProt P25098	1.01 ± 0.04	0.973 ± 0.032	0.956 ± 0.021	0.924 ± 0.075	0.97 ± 0.0097	0.951 ± 0.025
CHM (UniProt P24386)	1.03 ± 0.027	1.04 ± 0.068	1.02 ± 0.071	0.981 ± 0.095	0.986 ± 0.071	1.03 ± 0.086
UniProt P33240 and related entries	0.963 ± 0.057	0.964 ± 0.022	0.97 ± 0.05	0.981 ± 0.033	0.97 ± 0.031	0.976 ± 0.01
UniProt P32321 and related entries	0.903 ± 0.13	0.946 ± 0.097	0.905 ± 0.11	0.872 ± 0.18	0.861 ± 0.08	0.893 ± 0.071
AGL (UniProt P35573)	1.12 ± 0.021	1.11 ± 0.019	1.2 ± 0.063	1.16 ± 0.04	1.29 ± 0.091	1.34 ± 0.044
UniProt P29374 and related entries	1.03 ± 0.046	1.03 ± 0.033	1.04 ± 0.046	1.06 ± 0.088	1.05 ± 0.061	1.09 ± 0.056
PSMB5 (UniProt P28074)	0.977 ± 0.14	0.953 ± 0.071	0.92 ± 0.042	0.827 ± 0.037	0.932 ± 0.036	0.943 ± 0.077
OSBP (UniProt P22059)	0.989 ± 0.021	0.958 ± 0.043	0.954 ± 0.05	0.957 ± 0.054	0.963 ± 0.043	0.931 ± 0.044
UniProt P20340 and related entries	1.05 ± 0.087	1.02 ± 0.053	1.01 ± 0.069	0.991 ± 0.13	1.04 ± 0.062	0.983 ± 0.066
HIBADH (UniProt P31937)	0.952 ± 0.019	0.964 ± 0.03	0.948 ± 0.07	0.965 ± 0.033	0.936 ± 0.064	0.942 ± 0.016
UniProt P32121 and related entries	1.01 ± 0.047	1.03 ± 0.053	1.02 ± 0.057	0.979 ± 0.13	0.991 ± 0.03	1.03 ± 0.011
ICAM3 (UniProt P32942)	0.946 ± 0.043	0.925 ± 0.018	0.921 ± 0.027	0.975 ± 0.029	0.876 ± 0.044	0.853 ± 0.049
ALDH4A1 (UniProt P30038)	0.966 ± 0.064	0.967 ± 0.011	0.953 ± 0.019	0.962 ± 0.039	0.941 ± 0.015	0.938 ± 0.01
UniProt P23469 and related entries	1.13 ± 0.09	1.16 ± 0.082	1.04 ± 0.062	1.02 ± 0.16	1.1 ± 0.25	1.015 ± 0.0043
UniProt P29372 and related entries	1.11 ± 0.073	1.12 ± 0.028	1.23 ± 0.04	1.29 ± 0.056	1.36 ± 0.093	1.44 ± 0.033
UniProt P25445 and related entries	0.933 ± 0.048	0.949 ± 0.017	0.946 ± 0.026	0.992 ± 0.05	0.935 ± 0.035	0.889 ± 0.013
UniProt P27635 and related entries	0.924 ± 0.031	0.909 ± 0.083	0.911 ± 0.052	0.831 ± 0.088	0.786 ± 0.076	0.964 ± 0.056
DNAJB1 (UniProt P25685)	0.9861 ± 0.0058	0.973 ± 0.017	0.912 ± 0.024	0.999 ± 0.027	0.937 ± 0.044	0.925 ± 0.03
RPL12 (UniProt P30050)	0.929 ± 0.059	0.918 ± 0.074	0.88 ± 0.077	0.85 ± 0.075	0.745 ± 0.057	0.846 ± 0.04
UniProt P34896 and related entries	0.997 ± 0.07	0.992 ± 0.051	0.96 ± 0.035	0.945 ± 0.043	0.967 ± 0.022	0.965 ± 0.03

Target	NP40-soluble protein abundance (concentration: 1mM)	NP40-soluble protein abundance (concentration: 2mM)	NP40-soluble protein abundance (concentration: 4mM)	NP40-soluble protein abundance (concentration: 6mM)	NP40-soluble protein abundance (concentration: 8mM)	NP40-soluble protein abundance (concentration: 10mM)
HMGB2 (UniProt P26583)	1.02 ± 0.17	0.944 ± 0.1	0.97 ± 0.12	1.05 ± 0.14	1.02 ± 0.018	0.851 ± 0.22
UniProt P25786 and related entries	0.968 ± 0.032	0.93 ± 0.018	0.902 ± 0.022	0.93 ± 0.081	0.913 ± 0.044	0.897 ± 0.026
RPA3 (UniProt P35244)	1.01 ± 0.04	0.999 ± 0.033	0.97 ± 0.072	0.978 ± 0.014	0.948 ± 0.071	0.908 ± 0.018
EEF1B2 (UniProt P24534)	0.833 ± 0.41	0.82 ± 0.31	0.927 ± 0.11	0.701 ± 0.27	0.808 ± 0.056	0.68 ± 0.18
UniProt P29350 and related entries	1.02 ± 0.057	0.994 ± 0.057	0.98 ± 0.062	0.984 ± 0.081	0.99 ± 0.073	0.974 ± 0.052
UniProt P29590 and related entries	0.909 ± 0.048	0.911 ± 0.028	0.899 ± 0.034	0.947 ± 0.053	0.909 ± 0.012	0.934 ± 0.0095
POLR2C (UniProt P19387)	1.05 ± 0.029	1.04 ± 0.044	1.05 ± 0.036	1.08 ± 0.086	1.06 ± 0.05	1.06 ± 0.051
CPT2 (UniProt P23786)	0.995 ± 0.071	0.992 ± 0.078	0.959 ± 0.066	0.94 ± 0.11	0.979 ± 0.048	0.962 ± 0.066
UniProt P27361	1 ± 0.073	0.995 ± 0.068	0.972 ± 0.015	0.929 ± 0.094	0.979 ± 0.024	0.998 ± 0.031
UniProt P35609-2	0.832 ± 0.026	0.852 ± 0.049	0.822 ± 0.071	0.981 ± 0.086	0.818 ± 0.02	0.953 ± 0.015
PTPN1 (UniProt P18031)	0.982 ± 0.086	0.98 ± 0.088	0.947 ± 0.057	0.924 ± 0.11	0.957 ± 0.053	0.952 ± 0.062
GM2A (UniProt P17900)	0.972 ± 0.084	0.982 ± 0.053	0.961 ± 0.053	0.965 ± 0.03	0.971 ± 0.045	0.892 ± 0.093
UniProt P35611 and related entries	0.95 ± 0.019	0.9546 ± 0.0079	0.942 ± 0.015	0.937 ± 0.019	0.9399 ± 0.0069	0.96 ± 0.014
UniProt P23610	0.924 ± 0.015	0.937 ± 0.015	0.977 ± 0.078	0.938 ± 0.054	0.96 ± 0.066	0.885 ± 0.031
NCL (UniProt P19338)	0.627 ± 0.062	0.599 ± 0.04	0.578 ± 0.033	0.711 ± 0.023	0.736 ± 0.028	0.826 ± 0.049
ZNF22 (UniProt P17026)	1.04 ± 0.023	1.07 ± 0.086	1.09 ± 0.072	1.13 ± 0.084	1.15 ± 0.059	1.25 ± 0.078
RFC2 (UniProt P35250)	1.23 ± 0.034	1.28 ± 0.04	1.3 ± 0.03	1.33 ± 0.046	1.34 ± 0.049	1.34 ± 0.073
ABCC1 (UniProt P33527)	0.992 ± 0.012	0.9963 ± 0.0072	0.9825 ± 0.008	0.981 ± 0.0096	0.968 ± 0.011	0.97 ± 0.033
PPIB (UniProt P23284)	0.971 ± 0.036	0.985 ± 0.034	0.946 ± 0.025	1.05 ± 0.035	0.9717 ± 0.0091	0.979 ± 0.044
UniProt P30622-1|P30622-2	0.996 ± 0.063	1 ± 0.044	0.989 ± 0.026	1.04 ± 0.04	0.964 ± 0.011	0.9851 ± 0.0058
UniProt P17812	1 ± 0.063	0.976 ± 0.064	0.928 ± 0.06	0.917 ± 0.093	0.966 ± 0.064	0.937 ± 0.073
BLVRB (UniProt P30043)	0.952 ± 0.042	0.984 ± 0.043	0.962 ± 0.034	0.913 ± 0.067	0.951 ± 0.045	0.957 ± 0.034
GGT1 (UniProt P19440)	0.951 ± 0.034	1.05 ± 0.056	0.992 ± 0.023	1.02 ± 0.036	0.925 ± 0.036	0.857 ± 0.13
UniProt P29218 and related entries	0.992 ± 0.02	0.995 ± 0.036	0.962 ± 0.042	0.979 ± 0.041	0.959 ± 0.023	0.947 ± 0.037
MAN1A1 (UniProt P33908)	0.902 ± 0.032	0.915 ± 0.034	0.9054 ± 0.0054	0.909 ± 0.042	0.9103 ± 0.0073	0.911 ± 0.029
MCM5 (UniProt P33992)	0.971 ± 0.061	0.961 ± 0.043	0.953 ± 0.048	0.906 ± 0.028	0.979 ± 0.025	0.949 ± 0.033

Reformatted: results already given.
Target,NP40-soluble protein abundance (concentration: 1mM),NP40-soluble protein abundance (concentration: 2mM),NP40-soluble protein abundance (concentration: 4mM),NP40-soluble protein abundance (concentration: 6mM),NP40-soluble protein abundance (concentration: 8mM),NP40-soluble protein abundance (concentration: 10mM)
SLC9A1 (UniProt P19634),0.912 ± 0.067,0.893 ± 0.031,0.897 ± 0.036,0.942 ± 0.092,0.883 ± 0.061,0.855 ± 0.078
UniProt P25445 and related entries,0.933 ± 0.048,0.949 ± 0.017,0.946 ± 0.026,0.992 ± 0.05,0.935 ± 0.035,0.889 ± 0.013
UniProt P17812,1 ± 0.063,0.976 ± 0.064,0.928 ± 0.06,0.917 ± 0.093,0.966 ± 0.064,0.937 ± 0.073
